The list shows a part of the results.
target: OsWRKY34 (Oryza sativa, UniProt Q0JBA9 1-250); experiment: protein-binding microarray (RPBM); PBS, 2% BSA, 51.3 ng/ul salmon testes DNA, 50 uM zinc acetate, 200 nM TF, 25 C, 1 h; high values mean tight binding; settings: protein: recombinant; tags: N-terminal polyhistidine and DsRed monomer fusion (pET32a); label: CyDye5-dUTP incorporated in the synthesized complementary strand; 3' TTTTT single-stranded linker to array surface; dsDNA, one strand shown
Summary of the method: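 An Axon 4000B scanner gave the binding signal as per-feature fluorescence intensity in arbitrary units. This followed washing of a custom Agilent array that had been incubated for 1 h at 25 °C with 200 nM protein in PBS, 2% BSA, salmon testes DNA and 50 µM zinc acetate. The proteins were transcription factors fused at the N-terminus to polyhistidine and DsRed, expressed in E. coli BL21-CodonPlus and purified on Ni–NTA.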

Amino acid sequences for entries named in this document (tags omitted).
UniProt Q0JBA9, entry or part of it: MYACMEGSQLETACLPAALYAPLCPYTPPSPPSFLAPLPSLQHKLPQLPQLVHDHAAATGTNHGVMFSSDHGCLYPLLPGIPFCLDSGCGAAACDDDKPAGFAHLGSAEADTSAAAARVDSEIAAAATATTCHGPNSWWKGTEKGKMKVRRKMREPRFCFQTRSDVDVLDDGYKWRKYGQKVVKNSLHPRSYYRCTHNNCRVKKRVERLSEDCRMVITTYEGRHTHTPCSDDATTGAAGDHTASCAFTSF

| Sequence | binding signal |
| --- | --- |
| TTTTGTCTTCCATATCGCCTCTTTTAGTACTATTTCCCTTCGGAGTCACCTAGTGCAG | 13700 fluorescence intensity (a.u.) |
| TACAGAAGAATCCTCGCTTCTGTTTGTTATTCCACGCTTCCGGAGTCACCTAGTGCAG | 9450 fluorescence intensity (a.u.) |
| TCTCCTCTCGAGGCGCACAAGTCCAACACGCTCACCTTCTCGGAGTCACCTAGTGCAG | 10900 fluorescence intensity (a.u.) |
| CATCATCTCCCCTTGTTGACTCACAATAACACAAACCCATCGGAGTCACCTAGTGCAG | 8240 fluorescence intensity (a.u.) |
| TTCCCGGCGAGTTCTGAAATTAGTTTTTTCATTCGTGTCCCGGAGTCACCTAGTGCAG | 9170 fluorescence intensity (a.u.) |
| CTGGTTTTTAATGTTGTTGCTGGGTTATTTCGTTGATTGCCGGAGTCACCTAGTGCAG | 8350 fluorescence intensity (a.u.) |
| TATATATATATATATATATATATATATATAGTCACGTCCTCGGAGTCACCTAGTGCAG | 13800 fluorescence intensity (a.u.) |
| TGGTGGCGGCGGTGGCAGTGGTGGTGTTGGGATTGGGGTACGGAGTCACCTAGTGCAG | 9230 fluorescence intensity (a.u.) |
| CGAGCGATAACCATCTAGCACTCTTTCTTTCTTTCTTGCCCGGAGTCACCTAGTGCAG | 10100 fluorescence intensity (a.u.) |
| GGTGATAGGGGATTTGGGTTTTCAGGTCATGCAAGACGTGCGGAGTCACCTAGTGCAG | 10100 fluorescence intensity (a.u.) |
| TTACTTTGTGACCATCCGCGACGTCACGCTCACATCATTTCGGAGTCACCTAGTGCAG | 9830 fluorescence intensity (a.u.) |
| TGATGCTATAGGCTGATCTTTGGGGTTACGGCTACGTCGACGGAGTCACCTAGTGCAG | 8880 fluorescence intensity (a.u.) |
| TAGCTTCGCTTTCCTTCTTTCTCTCTTGTCTAGCTATCTTCGGAGTCACCTAGTGCAG | 8220 fluorescence intensity (a.u.) |
| CCTCTGTCGCGTTGCTGCTGGCGGAGCTCCTTGGCTTCTCCGGAGTCACCTAGTGCAG | 14100 fluorescence intensity (a.u.) |
| TGGGGCGCGTGGGGTGGCGATCCGTGGGGAGGCCGTTTCGCGGAGTCACCTAGTGCAG | 12200 fluorescence intensity (a.u.) |
| TCTTCTCTTGGCTCTGTCATGTCTTGCTGTCGGTAGGGGTCGGAGTCACCTAGTGCAG | 8460 fluorescence intensity (a.u.) |
| CATCACAAGCATATATCATATTTTATTTTCATTCCAACCTCGGAGTCACCTAGTGCAG | 9230 fluorescence intensity (a.u.) |
| AATTCGCTCATTCGCTGTGCCCTCGAGAAAATATAATAATCGGAGTCACCTAGTGCAG | 8230 fluorescence intensity (a.u.) |
| ACCTCCTCGCGTTCGCTCGCTACAGCGCACCACATCCACACGGAGTCACCTAGTGCAG | 8790 fluorescence intensity (a.u.) |
| TGTGCCAGAGTCATTTAGCAACTCTAATTTCCTAACGTTTCGGAGTCACCTAGTGCAG | 8400 fluorescence intensity (a.u.) |
| AGTTGATTTTGTACTCCTAAAATTTACAGTCATTCTTTACCGGAGTCACCTAGTGCAG | 8130 fluorescence intensity (a.u.) |

| Sequence | binding signal |
| --- | --- |
| ATTCGAGTTTCTTAATATGTTTTTTTTCTTTCTTCAGTTTCGGAGTCACCTAGTGCAG | 8850 fluorescence intensity (a.u.) |
| ACCCTCACTATAGTTTCCATGCTTTCTTCATGGTTTGTTTCGGAGTCACCTAGTGCAG | 8690 fluorescence intensity (a.u.) |
| CGCGCGCTCTCCCATCCATCCATCATCCAAGTCAACAAGACGGAGTCACCTAGTGCAG | 9150 fluorescence intensity (a.u.) |
| CCACTTGCTTTGCTGCTACAGTACTTCCTACTGTTACATACGGAGTCACCTAGTGCAG | 9660 fluorescence intensity (a.u.) |
| GGGTTGGTGTAGTGGCAGGGGAGTGACGGTGCGCGGTCCGCGGAGTCACCTAGTGCAG | 11000 fluorescence intensity (a.u.) |
| ATGGTCTCACATCTCATACACACATAACGTATTGAAGTTCCGGAGTCACCTAGTGCAG | 9010 fluorescence intensity (a.u.) |
| GTGGCATGAGCACCTACGATCAGTTCTTATCGTTATATTACGGAGTCACCTAGTGCAG | 8180 fluorescence intensity (a.u.) |
| CTATAGTAAGCTACTGAGTTTCCGTGCCTAACTTTGATCACGGAGTCACCTAGTGCAG | 10100 fluorescence intensity (a.u.) |
| TTATTTTCATTTCCACCCTTGCATCATTATTTAGTATTTTCGGAGTCACCTAGTGCAG | 9050 fluorescence intensity (a.u.) |
| TTTTGCCTCAGTCCAAACCGCTCCGGTCCGTTAGCTCACTCGGAGTCACCTAGTGCAG | 8290 fluorescence intensity (a.u.) |
| TCATTTTCAGTCTGTTTGCACTAATTTTGCTATTTTTATACGGAGTCACCTAGTGCAG | 10800 fluorescence intensity (a.u.) |
| CTGGTTTTTGGGGCCGGATTGTGATGAAAGATTGGGATTCCGGAGTCACCTAGTGCAG | 8200 fluorescence intensity (a.u.) |
| ATTTATATATTAATAGCTCTCTCATTCTGCGTGCCCTTACCGGAGTCACCTAGTGCAG | 11000 fluorescence intensity (a.u.) |
| AGTTTAAGATTAATTTTTAGTGGATTTTTTCGGCGCTCTTCGGAGTCACCTAGTGCAG | 8220 fluorescence intensity (a.u.) |
| CACGCACCCTCTTTCCCGTGCTTCGTGTGCCCTTCGATCGCGGAGTCACCTAGTGCAG | 9430 fluorescence intensity (a.u.) |
| GTTTATATCTCGCGGTATAGTTTGTGCGACTCTACTAATTCGGAGTCACCTAGTGCAG | 10500 fluorescence intensity (a.u.) |
| TGCAGTAACTTTGCAGCAGTCGTTTCACCAGTTACATTCTCGGAGTCACCTAGTGCAG | 8180 fluorescence intensity (a.u.) |
| GCTTTTACCGTTTCATGTCACACTTGTGTAGCTGTATTTTCGGAGTCACCTAGTGCAG | 10200 fluorescence intensity (a.u.) |
| TCACCACATCCTCCTCCCATCGATGGCCCAAAATGCTATTCGGAGTCACCTAGTGCAG | 8240 fluorescence intensity (a.u.) |
| CTGCTTCGGGTTTTTTTTTGCTCTTGCTCCGATCGACTGCCGGAGTCACCTAGTGCAG | 9710 fluorescence intensity (a.u.) |
| CACCCACCCACGCACACCGAGACAACCGAACACGTCGAGCCGGAGTCACCTAGTGCAG | 9430 fluorescence intensity (a.u.) |

Two records drawn at random from the list so far, as already listed:

| Sequence | binding signal |
| --- | --- |
| CCTCTGTCGCGTTGCTGCTGGCGGAGCTCCTTGGCTTCTCCGGAGTCACCTAGTGCAG | 14100 fluorescence intensity (a.u.) |
| TACAGAAGAATCCTCGCTTCTGTTTGTTATTCCACGCTTCCGGAGTCACCTAGTGCAG | 9450 fluorescence intensity (a.u.) |
